# Measured values as given in paper PMC8024022.
# Results are given in words; binding and its absence hold for the method and conditions named. In cells and extracts the contact can be indirect. Some results given as binding are weak or reduced against the parent protein; the word gives no strength.
# B1: GAB1 (protein, UniProt Q13480 1-694)
# chain: MSGGEVVCSGWLRKSPPEKKLKRYAWKRRWFVLRSGRLTGDPDVLEYYKNDHAKKPIRIIDLNLCQQVDAGLTFNKKEFENSYIFDINTIDRIFYLVADSEEEMNKWVRCICDICGFNPTEEDPVKPPGSSLQAPADLPLAINTAPPSTQADSSSATLPPPYQLINVPPHLETLGIQEDPQDYLLLINCQSKKPEPTRTHADSAKSTSSETDCNDNVPSHKNPASSQSKHGMNGFFQQQMIYDSPPSRAPSASVDSSLYNLPRSYSHDVLPKVSPSSTEADGELYVFNTPSGTSSVETQMRHVSISYDIPPTPGNTYQIPRTFPEGTLGQTSKLDTIPDIPPPRPPKPHPAHDRSPVETCSIPRTASDTDSSYCIPTAGMSPSRSNTISTVDLNKLRKDASSQDCYDIPRAFPSDRSSSLEGFHNHFKVKNVLTVGSVSSEELDENYVPMNPNSPPRQHSSSFTEPIQEANYVPMTPGTFDFSSFGMQVPPPAHMGFRSSPKTPPRRPVPVADCEPPPVDRNLKPDRKVKPAPLEIKPLPEWEELQAPVRSPITRSFARDSSRFPMSPRPDSVHSTTSSSDSHDSEENYVPMNPNLSSEDPNLFGSNSLDGGSSPMIKPKGDKQVEYLDLDLDSGKSTPPRKQKSSGSGSSVADERVDYVVVDQQKTLALKSTREAWTDGRQSTESETPAKSVK
# Experiments:
# [1] = molecular target: EGFR (human (endogenous in MDA-MB-468)) (UniProt P00533); experiment: proximity ligation; MDA-MB-468 cells, serum starved (basal), mock treated without EGF, DMSO carrier or SHP099 (10 µM) for 2 hr; fixed, mouse anti-EGFR and rabbit anti-GAB1, DuoLink PLA
# [2] = molecular target: EGFR (human (endogenous in MDA-MB-468)) (UniProt P00533); experiment: proximity ligation; MDA-MB-468 cells, serum starved 24 hr, DMSO carrier or SHP099 (10 µM) for 2 hr, then 1 nM EGF for 2 min; fixed, mouse anti-EGFR and rabbit anti-GAB1, DuoLink PLA, confocal, dots per cell
binder,measurement,setting,value
B1,binding,[1],binds weakly
same,binding,[2],binds
